Source: US20030092616A1, “STAT6 activation gene” (priority 2001, published 2003)

Test system: STAT6
Experiment: Screening compounds inhibiting promotion of STAT6 activity (STAT6 reporter activity)
Assay type: cell-based
Conditions: 30 μM, mouse IL-4 1 ng/ml, 6 h
Experimental: NIH3T3 cells were seeded on 10% FBS containing IMDM medium in a 96-well cell culture plate to a final cell density of 1×10^4 cells/100 μl/well, and cultured for 24 hours at 37° C. in the presence of 5% CO2. Then, 30 ng of the plasmid containing the nucleotide encoding the STAT6 activation-promoting protein of SEQ ID NO: 3, 17, 19, 218, 432 or 472, or the nucleotide of SEQ ID NO: 64, and 100 ng of the luciferase reporter plasmid having the STAT6 response sequence were cotransfected into the cells in a well using FuGENE 6. […] After 30 min of culture at 37° C., followed by 6 hours of culture with addition of mouse IL-4 to a final concentration of 1 ng/ml, the reporter activity was measured using PIKKA GENE LT2.0.

Which results are given for `CN[C@@H]1C[C@H]2O[C@@](C)([C@@H]1OC)n1c3ccccc3c3c4c(c5c6ccccc6n2c5c31)C(=O)NC4` [staurosporin]?
inhibition of expression of the STAT6 reporter gene, control plasmid well (NIH3T3 cells with control plasmid pcDNA3.1 (+)): no expression was inhibited at all; inhibition of expression of the STAT6 reporter gene (relative luciferase activity) (NIH3T3 cells with plasmid for STAT6 activation-promoting protein of SEQ ID NO: 3, 17, 19, 218, 432 or 472, or nucleotide of SEQ ID NO: 64, FIGS. 1 to 7): inhibited
